Laboratory results taken from US20090087871A1, “Method for Identifying PDE5-Modulators” (Atlanta Pharma AG, priority 2004, published 2009).
“Also recorded” adds a separate entry of the source. For at least one compound, name, drawing or mass did not settle the structure.

Test system: PDE5/CyaB1-chimera
Experiment: adenylate cyclase activity of PDE5/CyaB1-chimera (conversion of [α-32P]-ATP to cAMP)
Type: biochemical, human
Conditions: in the presence of cGMP; FIG. 6

## CN1CC(=O)N2[C@H](c3ccc4c(c3)OCO4)c3[nH]c4ccccc4c3C[C@@H]2C1=O [Tadalafil]
  PDE5-antagonistic effect via binding to the GAF domain of PDE5: None of the measured PDE5 inhibitors shows a PDE5-antagonistic effect; also recorded: None of the measured PDE5 inhibitors showed a PDE5-antagonistic action

## CCCc1nc(C)c2c(=O)[nH]c(-c3cc(S(=O)(=O)N4CCN(CC)CC4)ccc3OCC)nn12 [Vardenafil]
  PDE5-antagonistic effect via binding to the GAF domain of PDE5: None of the measured PDE5 inhibitors shows a PDE5-antagonistic effect; also recorded: None of the measured PDE5 inhibitors showed a PDE5-antagonistic action
